The test system of this series is RBCs.

Turning to `Cc1cc(-c2ccc(N(C)C)cc2)cc(-c2ccc(N(C)C)cc2)[s+]1.[I-]` [Compound 2, 2′,4′-bis(4-N,N-dimethylaminophenyl) 6′-methylthiopyrilium iodide], for the setting “n=4”, the glucose utilization rate was 6.20 ± 0.97 mM/day and the lactose production amounted to 26.7 ± 1.9 mM. Where the note is “n=10”, the “extracellular pH” value amounted to 6.48±0.07.

Values taken from patent US20060269907A1, “Decontamination of biological fluids using diphenylpyrilium compounds” (priority 2003, published 2006).
